The test addresses wild-type NP fused to a Flag tag (NP-Flag), influenza A/WSN/1933 (H1N1) nucleoprotein (influenza A/WSN/1933 (H1N1) virus) (UniProt P15682). The test is described as follows: pull-down; only the target purified.

Protein sequences, listed by entry. Tags and fused reporters are not part of them. Residues count along the entry.
UniProt P15682, residues 8-498: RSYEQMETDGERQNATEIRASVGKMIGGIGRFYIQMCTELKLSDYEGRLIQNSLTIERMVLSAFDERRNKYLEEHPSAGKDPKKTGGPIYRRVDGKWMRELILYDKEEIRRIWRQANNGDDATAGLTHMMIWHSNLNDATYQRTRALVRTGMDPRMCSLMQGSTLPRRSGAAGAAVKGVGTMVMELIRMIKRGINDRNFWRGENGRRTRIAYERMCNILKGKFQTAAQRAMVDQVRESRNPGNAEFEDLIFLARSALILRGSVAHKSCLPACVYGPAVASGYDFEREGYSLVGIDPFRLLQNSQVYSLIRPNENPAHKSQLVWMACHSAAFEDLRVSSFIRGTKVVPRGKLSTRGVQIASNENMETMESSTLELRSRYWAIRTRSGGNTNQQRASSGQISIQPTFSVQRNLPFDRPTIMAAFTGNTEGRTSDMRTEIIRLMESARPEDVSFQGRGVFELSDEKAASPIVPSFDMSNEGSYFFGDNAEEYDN
UniProt O14980: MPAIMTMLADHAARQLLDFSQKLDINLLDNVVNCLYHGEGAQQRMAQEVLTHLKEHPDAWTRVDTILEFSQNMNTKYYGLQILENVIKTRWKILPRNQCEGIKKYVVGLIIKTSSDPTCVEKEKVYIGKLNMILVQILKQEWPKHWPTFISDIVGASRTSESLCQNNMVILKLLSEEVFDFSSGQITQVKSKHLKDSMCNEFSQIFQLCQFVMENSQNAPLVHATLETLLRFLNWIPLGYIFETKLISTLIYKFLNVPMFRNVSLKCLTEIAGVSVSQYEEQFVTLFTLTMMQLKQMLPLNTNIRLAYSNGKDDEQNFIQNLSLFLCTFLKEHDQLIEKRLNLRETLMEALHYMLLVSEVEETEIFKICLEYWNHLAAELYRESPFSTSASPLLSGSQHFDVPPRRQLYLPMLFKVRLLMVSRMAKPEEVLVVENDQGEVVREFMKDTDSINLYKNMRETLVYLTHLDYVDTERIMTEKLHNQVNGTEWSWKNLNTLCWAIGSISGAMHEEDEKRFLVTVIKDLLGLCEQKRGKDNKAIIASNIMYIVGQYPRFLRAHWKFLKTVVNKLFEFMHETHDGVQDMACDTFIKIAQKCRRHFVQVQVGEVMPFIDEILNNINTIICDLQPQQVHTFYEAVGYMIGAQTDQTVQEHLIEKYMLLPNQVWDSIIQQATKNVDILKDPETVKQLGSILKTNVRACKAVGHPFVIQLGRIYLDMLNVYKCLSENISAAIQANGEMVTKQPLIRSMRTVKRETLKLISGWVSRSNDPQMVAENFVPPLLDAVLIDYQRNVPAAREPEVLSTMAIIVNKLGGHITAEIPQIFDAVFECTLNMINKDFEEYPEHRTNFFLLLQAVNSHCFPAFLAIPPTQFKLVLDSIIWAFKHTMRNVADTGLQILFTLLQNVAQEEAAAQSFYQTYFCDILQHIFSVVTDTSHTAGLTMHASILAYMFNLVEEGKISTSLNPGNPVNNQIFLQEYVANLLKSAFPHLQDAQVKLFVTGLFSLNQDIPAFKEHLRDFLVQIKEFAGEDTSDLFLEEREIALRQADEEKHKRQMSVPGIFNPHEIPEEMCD

These are yes or no findings as the source states them, for the method shown. Binding seen in cells or lysates may run through a third protein. Some results given as binding are weak or reduced against the parent protein; the word gives no strength.

Take “chromosome region maintenance 1 (CRM1) (from UniProt O14980 1-1071)”: the binding entry was “binds”.

The record behind these values is article PMC4519322 (PLoS Pathogens, 2015).
